The subject of this data set is SlJUL (Solanum lycopersicum). In words: activity in cells. To be noted: indirect: no repression of LUC reporter with G4-disrupted 5'UTR; protein in cells; variant of SlSMXL5 5'UTR.

The exact form of at least one protein or probe is not confirmed. A negative result means that nothing was seen under these conditions.

On to “UUACGGUAUUAACAACGAAAAAAAAUGUAAAAAAAAUAAAAUUGUAUCUAAGUUCCAUG [mSlSMXL5 5'UTR]”, for which the functional effect result is reported as “not active”.

Values taken from US20240052002.
